One assay addresses FLAG-tagged CDK9 (UniProt P50750). In words: co-immunoprecipitation from cells co-expressing ALK and FLAG-tagged CDK9, Western blot (FIG. 15A). For orientation: In western blotting, separated proteins are transferred to a membrane and probed.
Assay [1] addresses Poly(ADP-ribose) polymerase 1 (PARP1) (UniProt P09874). In words: co-immunoprecipitation, figure legend of FIGS. 10A-10D.
The target is the same in assay [2]. Nature of the assay: co-immunoprecipitation: PARP1 IP from SUM149 and BR#09 cell lysates, Western blot for FGFR3 (FIG. 10A).
For assay [3] the target is unchanged. Nature of the assay: proximity ligation assay in fixed BR cells (FIG. 3A); signal lower with talazoparib plus PD173074.

Protein sequences, listed by entry. Tags and fused reporters are not part of them. Residues count along the entry.
UniProt P50750: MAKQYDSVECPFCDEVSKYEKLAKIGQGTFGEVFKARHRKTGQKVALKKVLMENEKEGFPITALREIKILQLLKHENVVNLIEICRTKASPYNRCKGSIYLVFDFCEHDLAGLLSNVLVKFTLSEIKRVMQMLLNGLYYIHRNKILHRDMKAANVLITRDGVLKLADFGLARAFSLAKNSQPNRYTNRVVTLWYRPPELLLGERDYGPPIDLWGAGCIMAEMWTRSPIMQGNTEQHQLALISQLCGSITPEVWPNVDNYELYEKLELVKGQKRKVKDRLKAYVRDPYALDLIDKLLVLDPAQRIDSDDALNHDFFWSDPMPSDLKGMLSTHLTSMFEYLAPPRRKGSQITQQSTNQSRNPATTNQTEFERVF
UniProt P09874, residues 2-1014: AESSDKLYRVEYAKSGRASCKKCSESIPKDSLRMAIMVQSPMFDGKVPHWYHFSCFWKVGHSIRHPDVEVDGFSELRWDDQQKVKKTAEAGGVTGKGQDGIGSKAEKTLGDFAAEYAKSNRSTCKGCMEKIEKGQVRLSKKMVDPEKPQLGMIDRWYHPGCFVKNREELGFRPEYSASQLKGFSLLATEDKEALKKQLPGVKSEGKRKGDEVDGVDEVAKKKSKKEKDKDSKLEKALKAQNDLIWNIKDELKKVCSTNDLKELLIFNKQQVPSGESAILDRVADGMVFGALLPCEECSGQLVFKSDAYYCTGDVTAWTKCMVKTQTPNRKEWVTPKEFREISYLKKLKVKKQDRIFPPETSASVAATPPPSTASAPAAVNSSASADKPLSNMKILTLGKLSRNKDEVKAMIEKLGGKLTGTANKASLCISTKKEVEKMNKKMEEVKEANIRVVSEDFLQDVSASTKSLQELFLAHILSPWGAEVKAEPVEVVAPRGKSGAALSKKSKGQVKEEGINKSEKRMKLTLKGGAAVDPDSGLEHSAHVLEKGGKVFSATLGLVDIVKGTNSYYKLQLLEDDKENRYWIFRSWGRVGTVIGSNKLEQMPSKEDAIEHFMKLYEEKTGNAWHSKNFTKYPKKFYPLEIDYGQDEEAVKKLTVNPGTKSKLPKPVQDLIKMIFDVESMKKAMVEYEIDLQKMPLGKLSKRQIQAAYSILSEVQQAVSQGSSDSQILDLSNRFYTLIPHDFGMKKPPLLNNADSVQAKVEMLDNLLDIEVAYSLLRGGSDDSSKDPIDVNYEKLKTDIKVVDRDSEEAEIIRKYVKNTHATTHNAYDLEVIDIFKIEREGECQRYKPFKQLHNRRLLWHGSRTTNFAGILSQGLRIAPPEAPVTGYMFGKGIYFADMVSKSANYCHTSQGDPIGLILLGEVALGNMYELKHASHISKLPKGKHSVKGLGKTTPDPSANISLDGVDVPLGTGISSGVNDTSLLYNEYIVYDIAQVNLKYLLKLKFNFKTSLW
UniProt Q9UM73, residues 19-1620: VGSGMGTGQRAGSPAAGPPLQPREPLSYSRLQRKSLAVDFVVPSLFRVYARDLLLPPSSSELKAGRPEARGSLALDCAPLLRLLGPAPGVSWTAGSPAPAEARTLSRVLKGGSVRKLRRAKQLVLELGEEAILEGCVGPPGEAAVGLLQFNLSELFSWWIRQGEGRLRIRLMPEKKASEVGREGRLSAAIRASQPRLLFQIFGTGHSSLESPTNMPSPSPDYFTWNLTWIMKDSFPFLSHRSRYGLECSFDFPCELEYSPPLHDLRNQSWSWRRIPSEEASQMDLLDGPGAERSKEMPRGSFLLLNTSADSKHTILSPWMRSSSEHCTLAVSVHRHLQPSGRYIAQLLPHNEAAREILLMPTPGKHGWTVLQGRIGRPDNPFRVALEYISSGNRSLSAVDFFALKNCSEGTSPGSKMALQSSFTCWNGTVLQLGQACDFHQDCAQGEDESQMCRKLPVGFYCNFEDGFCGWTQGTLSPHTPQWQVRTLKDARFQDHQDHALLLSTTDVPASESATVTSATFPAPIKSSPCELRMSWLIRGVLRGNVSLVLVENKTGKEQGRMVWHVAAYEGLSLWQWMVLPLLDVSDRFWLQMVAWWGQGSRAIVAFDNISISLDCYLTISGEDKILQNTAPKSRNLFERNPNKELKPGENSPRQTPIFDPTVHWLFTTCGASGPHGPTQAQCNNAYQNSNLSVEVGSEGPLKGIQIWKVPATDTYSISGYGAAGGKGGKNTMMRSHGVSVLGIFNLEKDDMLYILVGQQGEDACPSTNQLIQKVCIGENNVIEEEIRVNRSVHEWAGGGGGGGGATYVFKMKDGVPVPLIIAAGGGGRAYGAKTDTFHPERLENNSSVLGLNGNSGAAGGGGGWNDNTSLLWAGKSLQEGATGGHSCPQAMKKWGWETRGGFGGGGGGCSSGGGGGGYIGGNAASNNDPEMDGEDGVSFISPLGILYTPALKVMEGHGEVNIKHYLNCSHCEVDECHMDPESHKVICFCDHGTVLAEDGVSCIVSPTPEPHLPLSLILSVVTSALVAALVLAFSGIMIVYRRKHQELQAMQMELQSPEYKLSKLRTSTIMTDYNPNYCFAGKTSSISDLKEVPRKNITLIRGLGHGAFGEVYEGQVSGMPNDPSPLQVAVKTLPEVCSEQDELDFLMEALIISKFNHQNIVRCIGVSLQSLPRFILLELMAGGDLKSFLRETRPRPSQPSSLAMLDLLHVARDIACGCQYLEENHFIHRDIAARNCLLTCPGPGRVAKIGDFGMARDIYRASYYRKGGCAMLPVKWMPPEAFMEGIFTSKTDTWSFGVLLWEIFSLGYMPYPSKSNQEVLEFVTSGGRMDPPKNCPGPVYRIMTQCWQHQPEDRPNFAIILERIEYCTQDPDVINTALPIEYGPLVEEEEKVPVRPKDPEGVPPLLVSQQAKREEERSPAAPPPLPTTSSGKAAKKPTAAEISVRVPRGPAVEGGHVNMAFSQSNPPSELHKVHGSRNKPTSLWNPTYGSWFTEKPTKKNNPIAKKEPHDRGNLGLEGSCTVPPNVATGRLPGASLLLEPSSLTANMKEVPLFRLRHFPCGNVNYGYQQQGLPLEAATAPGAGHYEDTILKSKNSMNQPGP
UniProt P22607, residues 23-806: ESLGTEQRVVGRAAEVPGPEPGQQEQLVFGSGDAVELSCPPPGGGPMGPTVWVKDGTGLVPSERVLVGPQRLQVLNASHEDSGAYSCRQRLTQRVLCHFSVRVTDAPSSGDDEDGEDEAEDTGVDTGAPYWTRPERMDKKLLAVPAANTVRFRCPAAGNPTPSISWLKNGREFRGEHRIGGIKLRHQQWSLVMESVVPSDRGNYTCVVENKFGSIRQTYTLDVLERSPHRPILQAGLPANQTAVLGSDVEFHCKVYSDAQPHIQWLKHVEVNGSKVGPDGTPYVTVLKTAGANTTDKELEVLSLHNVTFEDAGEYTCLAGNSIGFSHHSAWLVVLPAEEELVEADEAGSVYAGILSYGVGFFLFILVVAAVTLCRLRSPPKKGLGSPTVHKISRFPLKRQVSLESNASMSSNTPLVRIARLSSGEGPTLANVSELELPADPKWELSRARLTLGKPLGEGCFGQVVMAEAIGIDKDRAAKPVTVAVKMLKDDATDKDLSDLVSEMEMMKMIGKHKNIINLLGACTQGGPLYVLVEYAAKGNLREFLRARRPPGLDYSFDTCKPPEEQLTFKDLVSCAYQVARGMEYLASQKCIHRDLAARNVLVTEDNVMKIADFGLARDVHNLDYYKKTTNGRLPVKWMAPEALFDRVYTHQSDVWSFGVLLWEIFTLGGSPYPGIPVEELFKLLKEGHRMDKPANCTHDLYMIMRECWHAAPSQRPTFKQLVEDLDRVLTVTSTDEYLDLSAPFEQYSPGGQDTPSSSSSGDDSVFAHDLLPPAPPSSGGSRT

These are yes or no findings as the source states them, for the method shown. Binding seen in cells or lysates may run through a third protein. Some binding calls cover weakened binding; strength is not graded here.

On to “Anaplastic lymphoma kinase (ALK) (from UniProt Q9UM73 19-1620) (receptor)”, for which the binding entry with FLAG-tagged CDK9 was “binds”.

With “Fibroblast growth factor receptor 3 (FGFR3) (from UniProt P22607 23-806)”, the binding result in assay [1], in assay [2] and in assay [3] was “binds” each time.

Values taken from patent publication US20220305015A1, “COMBINATORIAL THERAPY TARGETING PARP1 AND RTK” (Board of Regents, The University of Texas System, priority 2019, published 2022).
